No constants are given. Whether binding was seen depends on the method and setting. In cells and extracts the contact can be indirect. Some results given as binding are weak or reduced against the parent protein; the word gives no strength. For some assays here: Where a sequence is shown, tags or fusion partners need not be part of it.

Sequences of proteins named here, by UniProt entry; tags and fusion partners are left off.
UniProt Q9QX29: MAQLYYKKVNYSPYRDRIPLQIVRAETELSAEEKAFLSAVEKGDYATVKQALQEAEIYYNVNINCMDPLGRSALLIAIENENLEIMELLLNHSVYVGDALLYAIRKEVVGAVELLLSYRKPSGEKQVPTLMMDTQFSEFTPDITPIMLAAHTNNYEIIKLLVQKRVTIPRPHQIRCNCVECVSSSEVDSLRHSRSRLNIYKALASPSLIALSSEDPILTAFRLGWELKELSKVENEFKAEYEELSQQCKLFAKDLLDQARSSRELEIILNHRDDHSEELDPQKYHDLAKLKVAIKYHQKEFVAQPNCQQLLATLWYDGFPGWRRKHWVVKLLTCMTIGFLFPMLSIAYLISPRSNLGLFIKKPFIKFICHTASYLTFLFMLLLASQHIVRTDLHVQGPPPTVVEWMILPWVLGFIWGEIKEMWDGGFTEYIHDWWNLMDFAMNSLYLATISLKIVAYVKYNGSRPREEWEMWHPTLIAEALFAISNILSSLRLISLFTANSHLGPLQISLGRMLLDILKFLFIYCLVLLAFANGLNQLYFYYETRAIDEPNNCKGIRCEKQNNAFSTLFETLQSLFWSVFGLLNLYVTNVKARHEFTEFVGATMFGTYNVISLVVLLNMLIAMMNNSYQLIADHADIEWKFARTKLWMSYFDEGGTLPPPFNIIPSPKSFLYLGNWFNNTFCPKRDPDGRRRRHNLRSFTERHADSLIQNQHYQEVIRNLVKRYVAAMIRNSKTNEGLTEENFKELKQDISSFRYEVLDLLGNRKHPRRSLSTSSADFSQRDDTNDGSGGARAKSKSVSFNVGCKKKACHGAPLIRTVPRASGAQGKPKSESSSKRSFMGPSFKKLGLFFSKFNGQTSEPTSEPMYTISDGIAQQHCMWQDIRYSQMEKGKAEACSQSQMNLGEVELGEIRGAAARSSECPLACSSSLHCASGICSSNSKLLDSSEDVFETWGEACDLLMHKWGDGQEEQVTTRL
UniProt Q61056: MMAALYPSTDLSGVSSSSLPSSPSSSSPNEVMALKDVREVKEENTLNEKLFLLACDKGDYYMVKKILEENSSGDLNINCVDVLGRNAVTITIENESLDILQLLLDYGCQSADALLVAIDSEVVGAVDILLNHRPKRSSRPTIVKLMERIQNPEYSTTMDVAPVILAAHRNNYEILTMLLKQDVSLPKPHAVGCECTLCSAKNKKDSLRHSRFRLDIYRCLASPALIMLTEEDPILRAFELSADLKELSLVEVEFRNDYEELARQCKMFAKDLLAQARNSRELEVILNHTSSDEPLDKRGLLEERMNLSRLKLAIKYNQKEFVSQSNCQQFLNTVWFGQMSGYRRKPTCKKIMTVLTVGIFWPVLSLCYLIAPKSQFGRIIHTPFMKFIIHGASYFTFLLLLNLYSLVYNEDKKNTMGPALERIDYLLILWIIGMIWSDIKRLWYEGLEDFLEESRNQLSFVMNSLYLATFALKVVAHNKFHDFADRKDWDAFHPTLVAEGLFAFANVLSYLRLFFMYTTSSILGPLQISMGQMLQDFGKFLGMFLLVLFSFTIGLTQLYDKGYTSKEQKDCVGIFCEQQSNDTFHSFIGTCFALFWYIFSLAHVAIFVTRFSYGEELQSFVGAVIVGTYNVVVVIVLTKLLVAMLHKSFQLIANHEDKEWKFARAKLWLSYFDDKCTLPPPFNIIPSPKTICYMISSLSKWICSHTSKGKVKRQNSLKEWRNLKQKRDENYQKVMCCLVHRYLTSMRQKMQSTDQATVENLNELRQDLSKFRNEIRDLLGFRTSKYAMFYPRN
UniProt Q9QUQ5: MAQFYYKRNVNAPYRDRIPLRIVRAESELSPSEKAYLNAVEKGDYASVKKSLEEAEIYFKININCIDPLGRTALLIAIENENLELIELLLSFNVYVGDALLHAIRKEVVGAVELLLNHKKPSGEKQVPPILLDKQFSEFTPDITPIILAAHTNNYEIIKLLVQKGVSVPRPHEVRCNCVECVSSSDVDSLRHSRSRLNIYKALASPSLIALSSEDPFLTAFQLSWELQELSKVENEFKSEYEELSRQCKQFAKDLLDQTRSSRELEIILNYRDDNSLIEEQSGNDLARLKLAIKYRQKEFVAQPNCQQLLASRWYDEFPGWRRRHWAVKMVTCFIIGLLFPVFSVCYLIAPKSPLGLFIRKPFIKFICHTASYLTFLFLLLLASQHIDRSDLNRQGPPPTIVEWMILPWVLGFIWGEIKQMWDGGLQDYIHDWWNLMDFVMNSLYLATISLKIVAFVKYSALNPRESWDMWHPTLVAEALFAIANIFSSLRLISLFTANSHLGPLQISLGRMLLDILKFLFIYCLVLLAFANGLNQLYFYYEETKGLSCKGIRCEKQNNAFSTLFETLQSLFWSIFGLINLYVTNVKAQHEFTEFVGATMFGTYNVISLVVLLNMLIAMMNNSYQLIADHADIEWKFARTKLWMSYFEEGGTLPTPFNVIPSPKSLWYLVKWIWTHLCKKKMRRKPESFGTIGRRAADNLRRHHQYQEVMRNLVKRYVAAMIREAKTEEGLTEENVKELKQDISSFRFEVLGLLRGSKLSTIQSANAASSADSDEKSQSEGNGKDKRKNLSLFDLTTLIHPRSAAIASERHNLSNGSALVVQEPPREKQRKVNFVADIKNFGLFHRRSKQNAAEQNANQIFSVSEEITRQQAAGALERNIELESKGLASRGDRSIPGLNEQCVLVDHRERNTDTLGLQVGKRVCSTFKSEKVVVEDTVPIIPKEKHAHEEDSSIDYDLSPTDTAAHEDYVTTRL

The target in assay [1] is T1, PLSCR1 (endogenous, mouse cortical neurons) (mouse (endogenous in cortical neurons)) (UniProt Q9JJ00).
T1 sequence: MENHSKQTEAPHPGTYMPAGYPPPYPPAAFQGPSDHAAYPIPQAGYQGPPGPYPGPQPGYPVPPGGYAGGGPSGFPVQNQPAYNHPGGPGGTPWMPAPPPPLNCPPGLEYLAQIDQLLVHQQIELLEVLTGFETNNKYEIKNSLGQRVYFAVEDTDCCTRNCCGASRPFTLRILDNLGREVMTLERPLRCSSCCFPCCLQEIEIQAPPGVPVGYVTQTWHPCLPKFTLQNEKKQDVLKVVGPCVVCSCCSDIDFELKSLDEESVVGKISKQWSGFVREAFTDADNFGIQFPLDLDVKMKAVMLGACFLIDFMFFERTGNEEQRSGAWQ
The experiment in a line: co-IP; lysates of freshly isolated mouse cortical neurons, endogenous proteins; 1% Nonidet P-40, 150 mmol/L NaCl, 20 mmol/L Tris-HCl pH 8.0; anti-PLSCR1 or anti-TRPC5 overnight at 4 C, protein A magnetic beads; immunoblot; preimmune IgG as control. For orientation: In western blotting, separated proteins are transferred to a membrane and probed.

For assay [2], the target named is T1, PLSCR1 (endogenous, mouse cortical neurons) (mouse (endogenous in cortical neurons)). The experiment in a line: proximity ligation; in situ PLA (Duolink) on fixed, permeabilized, freshly isolated C57 mouse cerebral cortical neurons; goat anti-PLSCR1 and rabbit anti-TRPC5 (1:40); control with anti-TRPC5 antibody alone.
In assay [3] the target is T2, PLSCR1-EGFP (phospholipid scramblase 1, EGFP tagged at the carboxyl terminus) (human) (UniProt O15162).
T2 sequence: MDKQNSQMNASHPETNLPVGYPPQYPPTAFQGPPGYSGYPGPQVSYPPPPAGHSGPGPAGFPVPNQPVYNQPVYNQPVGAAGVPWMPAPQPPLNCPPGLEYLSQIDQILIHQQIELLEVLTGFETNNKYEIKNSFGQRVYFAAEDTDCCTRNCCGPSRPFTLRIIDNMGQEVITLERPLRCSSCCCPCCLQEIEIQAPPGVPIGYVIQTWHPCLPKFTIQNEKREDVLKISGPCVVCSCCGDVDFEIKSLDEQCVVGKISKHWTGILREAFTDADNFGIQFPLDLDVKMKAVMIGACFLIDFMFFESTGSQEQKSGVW
The experiment in a line: FRET or BRET; sensitized emission FRET in HEK293 cells co-transfected with EGFP-tagged (donor) and mCherry-tagged (acceptor) constructs; Leica confocal. For orientation: In BRET a luciferase serves as donor, and the signal depends on an acceptor being close.

Assay [4] concerns the target T2, PLSCR1-EGFP (phospholipid scramblase 1, EGFP tagged at the carboxyl terminus) (human). The experiment in a line: co-IP; HEK293 cells co-transfected; lysis in 1% Nonidet P-40, 150 mmol/L NaCl, 20 mmol/L Tris-HCl pH 8.0; 800 ug protein with 3 ug anti-mCherry or anti-EGFP overnight at 4 C, protein A magnetic beads; immunoblot; preimmune IgG as control.
In assay [5] the target is TRPC5-mCherry (transient receptor potential canonical 5, mCherry tagged at the carboxyl terminus) (mouse) (UniProt Q9QX29). The assay is described as above.
The target of assay [6] is TRPC5 (endogenous, mouse cortical neurons) (mouse (endogenous in cortical neurons)) (UniProt Q9QX29). The experiment in a line: co-IP; lysates of freshly isolated mouse cortical neurons, endogenous proteins; 1% Nonidet P-40, 150 mmol/L NaCl, 20 mmol/L Tris-HCl pH 8.0; anti-PLSCR1 or anti-TRPC5 overnight at 4 C, protein A magnetic beads; immunoblot; preimmune IgG as control.

Take “TRPC1 (endogenous, mouse cortical neurons) (from UniProt Q61056 1-793)”: in assay [1], the binding entry is “binds”.
Same read-out and setting: as for “TRPC4 (endogenous, mouse cortical neurons) (from UniProt Q9QUQ5 1-974)”, the entry is “binds”.
Consider “TRPC5 (endogenous, mouse cortical neurons) (from UniProt Q9QX29 1-975)”, for which the binding entry in assay [2] and in assay [1] was “binds” each time.
For “TRPC5-mCherry (transient receptor potential canonical 5, mCherry tagged at the carboxyl terminus) (from UniProt Q9QX29 1-975)”, the binding result in assay [3] and in assay [4] was “binds” throughout.

B1: PLSCR1-EGFP (phospholipid scramblase 1, EGFP tagged at the carboxyl terminus) (protein, UniProt O15162-1 1-318)
chain: T2 sequence
B1: in assay [5], the binding result is listed as “binds”.

B2: PLSCR1 (endogenous, mouse cortical neurons) (protein, UniProt Q9JJ00 1-328)
chain: T1 sequence
Turning to B2, the binding entry in assay [6] is listed as “binds”.

Source of the values: article PMC7140530.
